Data published in the supplement of paper PMC11150407.
The whole screen tested about 3,000 compounds, of which about 45 (2%) showed an effect of 50% or more. This is one part of the list.

system: MOLM1 and UCSD/AML1 (averaged); assay: cell viability relative to DMSO control (POC); higher = less growth inhibition; conditions: 1 µM; 72 h
Experimental: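 Primary viability screen in the 3q26 EVI1-high AML cell lines MOLM1 and UCSD/AML1, compounds at 1 uM for 72 h. ATP CellTiter-Glo read-out given as percent viable over DMSO control (POC), averaged over duplicates. This mapping covers the TimTec NDL-3000 natural derivative library, whose compounds are identified by TimTec catalogue codes (ST...).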

| Compound | cell viability |
| --- | --- |
| COc1ccc(CC(C)NC(=O)c2ccc3c(c2)OCO3)cc1OC (stereo not drawn) | 104% |
| Cc1oc(-c2ccccc2Cl)nc1CSc1nc2c(=O)[nH]cnc2n1C | 97.1% |
| COc1ccc(NC(=O)CN2CCC3(O)CCCCC3C2c2cc(OC)c(OC)c(OC)c2)cc1 (stereo not drawn) | 98.5% |
| Cc1oc(-c2ccc(OC(C)C)cc2)nc1CSc1nc2c(=O)[nH]cnc2n1C | 104% |
| NC(Cc1ccccc1F)C(=O)O (stereo not drawn) | 109% |
| O=C(c1ccncc1)c1cccc([N+](=O)[O-])c1 | 92.4% |
| Cc1cc(NC(=O)c2ccc(C)c([N+](=O)[O-])c2)ccc1-c1cc2ccccc2oc1=O | 91.8% |
| Nc1nc(N)c2[nH]c(SCC(=O)O)nc2n1 | 102% |
| CCOC(=O)c1ccc2[nH]c(=O)c(Cc3ccccc3)c(O)c2c1 | 97.9% |
| COc1ccc(C(C)=O)c(O)c1O | 105% |
| COc1cc(-c2cc(=O)c3cc(C)cc(C)c3o2)ccc1O | 85.9% |
| COc1ccc(C(=O)C2[C@@H]3C4COC(O4)C(=O)[C@@H]3[C@H]3C=Cc4ccccc4N23)cc1OC (stereo partly drawn) | 90.7% |
| Cc1ccc2occc(=O)c2c1 | 100% |
| Cc1cc(=O)[nH]c2ccc(S(=O)(=O)N3CCN(c4ccccc4F)CC3)cc12 | 99.8% |
| CC1(C(=O)O)CCC2(C)CCC3(C)C(=CCC4C5(C)CCC(O)C(C)(C)C5CCC43C)C2C1 (stereo not drawn) | 101% |
| COC(=O)c1cc(O)cc(O)c1 | 104% |
| COCCOC(=O)C1=C(N)OC2=C(C(=O)CC(C)(C)C2)C1c1cccnc1 (stereo not drawn) | 94.1% |
| CCOC(=O)c1ccc(NC(=O)CSc2nc3c(=O)[nH]cnc3n2C)cc1 | 94.5% |
| COc1cc(C=O)cc(OC)c1O | 93.7% |
| Cc1ccc(-n2c(SCc3ccc(Cl)cc3)nc3c(=O)[nH]cnc32)cc1 | 112% |
| CC(=O)Nc1ccc(NC(=O)Cn2c(=O)cc(C(=O)N3CCCCC3)c3ccccc32)cc1 | 105% |

3 entries out of the list, ordered by count of non-hydrogen atoms, low to high.

| Compound | cell viability |
| --- | --- |
| NC(Cc1ccccc1F)C(=O)O (stereo not drawn) | 109% |
| CCOC(=O)c1ccc(NC(=O)CSc2nc3c(=O)[nH]cnc3n2C)cc1 | 94.5% |
| Cc1cc(NC(=O)c2ccc(C)c([N+](=O)[O-])c2)ccc1-c1cc2ccccc2oc1=O | 91.8% |

Additional results

| Compound | cell viability |
| --- | --- |
| COc1ccc(C2OC[C@@H]3C(c4ccc(OC)c(OC)c4)OC[C@H]23)cc1OC (stereo partly drawn) | 101% |
| COC(=O)C1=CN(C(C)c2ccccc2)C=C(C(=O)OC)C1c1cc(OC)c(OC)c(OC)c1 (stereo not drawn) | 100% |
| Cc1ccc(-n2c(SCC(=O)Nc3c(F)c(F)cc(F)c3F)nc3c(=O)[nH]cnc32)cc1 | 102% |
| COc1ccc(CCNS(C)(=O)=O)cc1OC | 105% |
| C=CCOC(=O)C1(C)CCC2(C)CCC3(C)C(=CC(=O)C4C5(C)CCC(OC(C)=O)C(C)(C)C5CCC43C)C2C1 (stereo not drawn) | 99.4% |
| COc1cc(C(=O)NNC(=O)C2CC=CCC2C(=O)O)cc(OC)c1OC (stereo not drawn) | 99.9% |
| CCOc1ccc(C(c2c[nH]c3ccccc23)c2c[nH]c3ccccc23)cc1 | 99.7% |
| Cc1ccc(C(=O)NC(C)(C)C(=O)N/N=C/c2c(O)c(O)c(C(C)C)c3cc(C)c(-c4c(C)cc5c(C(C)C)c(O)c(O)c(/C=N/NC(=O)C(C)(C)NC(=O)c6ccc(C)cc6)c5c4O)c(O)c23)cc1 | 101% |
| COC(=O)c1[nH]c2cccc(OC)c2c1N | 99.5% |
| COc1cc(CNC(=O)COc2ccc(C3CCCCC3)cc2)cc(OC)c1OC | 95% |
| CCOc1ccc2oc(=O)cc(Cn3c(=O)c4c(C(=O)OC)cc(C5CC5)nc4n(C)c3=O)c2c1 | 91.3% |
| O=C(Cn1c(=O)cc(C(=O)N2CCCCC2)c2ccccc21)Nc1ccccc1 | 100% |
| C=CCN(C(=O)CSc1nc2c(=O)[nH]cnc2n1-c1ccc(C)cc1)c1ccccc1 | 96.5% |
| CN(C)c1ccc2cc3ccc(=[N+](C)C)cc-3oc2c1 | 3.15% |
| CCOc1ccc(C(=O)Nc2ccccc2OC)cc1OCC | 89.7% |
| O=C(C[C@H](NC(=O)OCC1c2ccccc2-c2ccccc21)C(=O)O)NC(c1ccccc1)(c1ccccc1)c1ccccc1 | 90.1% |
| N#C/C(=C\c1ccc(-c2ccc(Cl)c(Cl)c2)o1)C(=O)N1CCc2ccccc2C1 | 97.6% |
| CN(C(=O)CN(CCO)CC(=O)N(C)C(C)(C)Cc1ccccc1)C(C)(C)Cc1ccccc1 | 95.8% |
| Cc1cccc(Cn2c(SCc3ccc(Cl)cc3)nc3c2c(=O)[nH]c(=O)n3C)c1 | 95.2% |
| COc1cc2c(cc1OC)C1(C)N(CC2)C(=O)OC1(C)C (stereo not drawn) | 108% |
| O=C(/C=C/c1ccc(Cl)cc1Cl)c1ccc(Br)cc1 | 108% |

| Compound | cell viability |
| --- | --- |
| COc1cc(C2/C(=C(\O)c3ccccc3)C(=O)C(=O)N2c2cccc(C)c2)ccc1O (stereo not drawn) | 89.6% |
| COc1cc(/C=C(\C(=O)c2ccc(C)cc2)c2nc3ccccc3o2)ccc1O | 95.9% |
| COc1cc(OC)cc(C(=O)NCc2ccc3[nH]c4c(c3c2)CCCC4)c1 | 97% |
| O=C(/C=C/c1ccc2c(c1)OCO2)c1ccc2c(c1)OCCO2 | 104% |
| CC(=O)Nc1nc(-c2ccccc2)nc2c1c(=O)oc1ccccc12 | 93.3% |
| COC(=O)CNC(=O)c1ccc(Cl)cc1 | 96.7% |
| NC(Cc1ccc(F)cc1)C(=O)O (stereo not drawn) | 96.1% |
| CC(C)(C)OC(=O)N[C@@H](CC(=O)OCc1ccccc1)C(=O)O | 95.4% |
| CCN(CC)CCC(=O)c1ccc(OC)c(OC)c1 | 98.6% |
| COc1cccc(C2Nc3ccccc3NC3=C2C(=O)CC(c2ccc(Cl)cc2)C3)c1OC (stereo not drawn) | 111% |
| C=C(C)C1CCC2(C)CCC3(C)C(CCC4C5(C)CCC(OC(C)=O)C(C)(C)C5CCC43C)C12 (stereo not drawn) | 102% |
| Cc1c(-c2ccc(Cl)cc2)c(=O)oc2cc(O)ccc12 | 93.9% |
| CCOC(=O)Cn1c(Sc2nc3c(c(=O)n(C)c(=O)n3C)n2C)nc2ccccc21 | 101% |
| CCCOC(=O)/C(=C\c1ccncc1)NC(=O)c1ccccc1 | 105% |
| O=C(NCc1ccccc1)c1c(O)c2ccccc2[nH]c1=O | 120% |
| CC1CCCCN1C(=O)CSc1nc2ccccc2c(=O)[nH]1 (stereo not drawn) | 96.7% |
| CC(=O)n1cc(N2C(=O)C3C4C=CC(C4)C3C2=O)c(=O)[nH]c1=O (stereo not drawn) | 101% |
| Cc1cc(OCCN=Cc2c(O)c(O)c(C(C)C)c3cc(C)c(-c4c(C)cc5c(C(C)C)c(O)c(O)c(C=NCCOc6cc(C)c(Cl)c(C)c6Cl)c5c4O)c(O)c23)c(Cl)c(C)c1Cl | 87.2% |
| CCOc1ccc2oc(=O)cc(CN3CCN(Cc4ccc(F)cc4Cl)CC3)c2c1 | 93.3% |
| O=C(Cn1c(=O)cc(C(=O)NCc2ccccc2)c2ccccc21)Nc1ccc(Cl)cc1 | 89.8% |
| COc1cc(OC)cc(C(=O)c2ccc(C(=O)Nc3cc(C(C)C)c(O)cc3C)cc2)c1 | 82.8% |
